Reference: patent US20220125885A1, “GLUCAGON ANALOG AGONISTS AND METHODS OF USING THE SAME” (Eli Lilly and Company, priority 2019, published 2022)
“Also recorded” adds a separate entry of the source. Like-named read-outs stand apart in the source and are kept apart here. For some assays here: At least one structure is not confirmed: it was looked up by name or label, or the drawing left a doubt. Some compounds share one wording; it may come from a single statement. Some entries share one result that the patent states for a list of compounds. Where a SMILES comes first, the peptide text is derived from it. [ ]: non-standard residue; d: D form. 4Pal = N[C@@H](Cc1ccncc1)C(=O)O; Aib = CC(C)(N)C(=O)O

Amino acid sequences for entries named in this document (tags omitted). Residues count along the entry.
UniProt P43220, 24-463: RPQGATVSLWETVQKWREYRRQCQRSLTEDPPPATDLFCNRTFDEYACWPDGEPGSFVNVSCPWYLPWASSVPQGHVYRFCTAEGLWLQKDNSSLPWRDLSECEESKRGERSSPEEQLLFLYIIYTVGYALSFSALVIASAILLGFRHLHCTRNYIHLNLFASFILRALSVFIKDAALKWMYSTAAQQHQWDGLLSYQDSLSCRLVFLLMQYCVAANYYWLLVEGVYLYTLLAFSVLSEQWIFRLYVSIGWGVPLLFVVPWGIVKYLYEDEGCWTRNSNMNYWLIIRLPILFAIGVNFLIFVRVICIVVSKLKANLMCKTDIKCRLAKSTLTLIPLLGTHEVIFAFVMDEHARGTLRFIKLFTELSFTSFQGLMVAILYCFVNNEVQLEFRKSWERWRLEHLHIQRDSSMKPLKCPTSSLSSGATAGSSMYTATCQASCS
UniProt P47871, 26-477: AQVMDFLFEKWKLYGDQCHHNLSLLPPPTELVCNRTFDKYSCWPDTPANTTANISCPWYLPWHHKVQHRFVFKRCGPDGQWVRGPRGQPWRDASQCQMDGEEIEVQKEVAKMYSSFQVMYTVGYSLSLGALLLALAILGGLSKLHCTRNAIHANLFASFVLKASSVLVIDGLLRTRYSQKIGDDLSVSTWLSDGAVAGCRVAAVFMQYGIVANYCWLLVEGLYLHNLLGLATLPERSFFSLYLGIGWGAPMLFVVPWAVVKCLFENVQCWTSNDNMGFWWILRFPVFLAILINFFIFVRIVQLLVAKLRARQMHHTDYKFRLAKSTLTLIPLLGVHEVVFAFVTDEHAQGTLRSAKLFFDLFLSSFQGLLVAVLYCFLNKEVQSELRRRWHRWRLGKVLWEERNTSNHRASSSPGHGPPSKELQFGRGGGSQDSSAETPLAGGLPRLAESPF

Legend:
[1] = Association state by analytical ultracentrifugation (sedimentation velocity); type: physicochemical; conditions: for Monomeric content: analytical centrifugation
[2] = Hydrophilicity by analytical RP-HPLC; type: physicochemical; conditions: faster retention time indicates higher hydrophilicity
[3] = target: T1, human GIP receptor (hGIP-R) (Homo sapiens, UniProt P48546); test: cAMP functional activity assay, hGIP-R HEK-293 cells; type: cell-based; conditions: in the presence of FBS and BSA
T1 construct: expressed in transfected cells; host or cells: HEK-293 clonal cell line
T1 sequence (P48546 22-466): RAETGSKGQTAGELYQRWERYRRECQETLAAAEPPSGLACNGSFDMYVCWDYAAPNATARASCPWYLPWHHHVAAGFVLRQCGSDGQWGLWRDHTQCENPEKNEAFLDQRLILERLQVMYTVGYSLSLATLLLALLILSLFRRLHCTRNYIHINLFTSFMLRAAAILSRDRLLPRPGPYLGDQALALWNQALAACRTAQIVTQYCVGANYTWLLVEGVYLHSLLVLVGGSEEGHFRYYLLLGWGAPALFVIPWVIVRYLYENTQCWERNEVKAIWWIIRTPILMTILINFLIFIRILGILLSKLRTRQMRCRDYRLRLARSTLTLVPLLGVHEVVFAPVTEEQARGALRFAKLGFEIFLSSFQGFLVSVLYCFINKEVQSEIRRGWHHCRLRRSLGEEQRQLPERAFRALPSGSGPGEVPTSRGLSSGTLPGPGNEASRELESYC
Procedure: (§1) After a sixty-minute incubation at room temperature, the resulting increase in intracellular cAMP is quantitatively determined using a cAMP Dynamic 2 HTRF Assay Kit (62AM4PEJ; CisBio; Codolet, FR). Briefly, cAMP levels within the cell are detected by adding a cAMP-d2 conjugate in cell lysis buffer (10 μl) followed by an anti-cAMP-Eu3+-Cryptate antibody, also in cell lysis buffer (10 μl). […] A relative EC50 value and percent top (Emax) are derived by non-linear regression analysis using the percent maximal response vs. the concentration of peptide added, fitted to a four-parameter logistic equation.

[4] = system: CD8+ T cell-depleted peripheral blood mononuclear cells (CD4+ T cells); test: CD4+ T cell assay (immunogenicity); type: cell-based, human; conditions: Cell Division Index; positive donors only
Procedure: 1. CD4+ T Cell Assay: to assess the propensity for a clinical immunogenic response to the G compounds of Examples 1-4, CD8+ T cell-depleted peripheral blood mononuclear cells (PBMC's) are prepared and labeled with carboxyfluorescein diacetate succinimidyl ester (CFSE; Invitrogen) from a cohort of 10 healthy donors with diverse human leukocyte antigen (HLA) class II haplotypes. Each donor is tested in triplicate with 2.0 mL media control, keyhole limpet haemocyanin (KLH; 0.33 μM), and the compounds of Examples 1-4 (10 μM). Cultures are incubated for 7 days at 37° C. with 5% CO2. On day 7, samples are analyzed by flow cytometry using a BD LSR II Fortessa (Becton Dickinson; Franklin Lakes, N.J.), equipped with a high throughput sampler (HTS). Data is analyzed using FlowJo® Software (FlowJo, LLC/TreeStar; Ashland, Oreg.).
Protein therapeutics that induce less than 30% positive response in the CD4+ T cell proliferation assay are associated with a low risk of immunogenicity.

[5] = type: physicochemical; conditions: Example 2 at 5 mg/mL, Examples 1, 3, 4 at 2 mg/mL
[6] = Thioflavin T binding assay (fibrillation, physical stability); type: physicochemical; conditions: for Physical stability: 37° C. and pH 6 for two weeks with agitation stress, visual assessment and Thioflavin T; for Thioflavin T fluorescence, t = 2 weeks / Thioflavin T fluorescence, t = 0 hr: H6PG/mCresol buffer; for Fibrillation: Thioflavin T binding assay
[7] = type: in vivo, Yucatan Miniature Swine; conditions: pig model; single administration
Procedure: 1. […] The compounds and an analog as an internal standard are extracted from […] by antibody or protein precipitations. The intact mass of the compounds are detected by a Q Exactive® Orbitrap® Mass Spectrometer (Thermo Fisher Scientific; Waltham, Mass.). 2. […] Blood is collected at pre-dose, 2, 5, 10, 15, 20, 25, 30, 45, 60, 75, 90, 120 and 150 minutes post-dose, and plasma is obtained for pharmacokinetic characterization. […] Blood is collected at pre-dose, 2, 5, 10, 15, 20, 25, 30, 45, 60, 75, 90, 120 and 150 minutes postdose, and plasma is obtained for pharmacokinetic characterization.

[8] = target: T2, human GLP-1 receptor (hGLP-1R) (Homo sapiens, UniProt P43220); test: cAMP functional activity assay, hGLP-1R HEK-293 cells; type: cell-based; conditions: for cAMP EC50 hGLP-1R: in the presence of FBS and BSA; for Emax hGLP-1R: percent of response to 10 nM GLP-1(7-36)NH2, mean ± SEM
T2 construct: expressed in transfected cells; host or cells: HEK-293 clonal cell line

[9] = target: T3, human GLP-2 receptor (hGLP-2R) (Homo sapiens, UniProt O95838); test: hGLP-2R-stimulated cAMP functional response; type: cell-based; conditions: highest concentration of 2500 nM
T3 construct: expressed in transfected cells; host or cells: hGLP-2R-HEK-293 cells (clone 20160624-BE03859-037)
T3 sequence (O95838 1-553): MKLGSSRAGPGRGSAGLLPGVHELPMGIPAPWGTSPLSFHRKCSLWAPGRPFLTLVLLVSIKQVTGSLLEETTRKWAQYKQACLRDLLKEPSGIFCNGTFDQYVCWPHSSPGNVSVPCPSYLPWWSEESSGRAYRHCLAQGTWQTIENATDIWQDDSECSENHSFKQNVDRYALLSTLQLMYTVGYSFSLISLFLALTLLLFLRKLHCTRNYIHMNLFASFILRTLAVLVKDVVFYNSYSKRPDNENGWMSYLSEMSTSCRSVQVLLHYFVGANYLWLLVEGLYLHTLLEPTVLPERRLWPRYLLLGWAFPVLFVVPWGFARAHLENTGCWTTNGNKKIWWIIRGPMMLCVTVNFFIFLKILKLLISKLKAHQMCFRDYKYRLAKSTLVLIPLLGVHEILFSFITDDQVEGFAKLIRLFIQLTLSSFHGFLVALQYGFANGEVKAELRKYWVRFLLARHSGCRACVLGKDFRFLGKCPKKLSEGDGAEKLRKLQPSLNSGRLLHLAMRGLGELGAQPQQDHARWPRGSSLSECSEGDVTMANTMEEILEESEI

hGCGR = target: T4, hGCGR (Homo sapiens, UniProt P47871); test: cAMP functional activity assay, hGCGR HEK-293 cells; type: cell-based; conditions: for cAMP EC50 hGCGR: in the presence of FBS and BSA; for Emax hGCGR: percent of response to 1 nM Glucagon, mean ± SEM
T4 construct: expressed in transfected cells; host or cells: HEK-293 clonal cell line
Procedure: as §1

Row | Compound | HMWS % ([1]; H5.5PG/mCresol) [%] | Monomer % ([1]; H5.5PG/mCresol) [%] | Trimer % ([1]; H5.5PG/mCresol) [%] | HMWS % ([1]; H6PG/mCresol) [%] | Monomer % ([1]; H6PG/mCresol) [%] | Trimer % ([1]; H6PG/mCresol) [%] | HMWS % ([1]; H6.5PG/mCresol) [%] | Monomer % ([1]; H6.5PG/mCresol) [%] | Trimer % ([1]; H6.5PG/mCresol) [%] | Monomeric content [1] | Retention Time (hydrophilicity) [2] [min] | cAMP EC50 hGIPR [3] | Median Response Strength in positive donors (CDI) [4] | 37° C. vs 4° C. Recovery 4wk ([5]; H5.5PG/mCresol) [%] | 37° C. vs 4° C. Recovery 4wk ([5]; H6.0PG/mCresol) [%] | 37° C. vs 4° C. Recovery 4wk ([5]; H6.5PG/mCresol) [%] | Physical stability [6] | Thioflavin T fluorescence, t = 2 weeks ([6]; 4° C.) [fluorescence units] | Thioflavin T fluorescence, t = 2 weeks ([6]; 37° C./150 rpm) [fluorescence units] | Thioflavin T fluorescence, t = 2 weeks ([6]; 37° C.) [fluorescence units] | further results
1 | CC(C)C[C@H](NC(=O)[C@H](Cc1ccncc1)NC(=O)[C@H](CCCCN)NC(=O)[C@@H](NC(=O)[C@H](Cc1ccccc1)NC(=O)[C@H](C)NC(=O)[C@H](CCC(N)=O)NC(=O)[C@H](C)NC(=O)[C@H](CCCNC(=N)N)NC(=O)[C@H](CCCNC(=N)N)NC(=O)C(C)(C)NC(=O)[C@H](CC(=O)O)NC(=O)[C@H](CC(C)C)NC(=O)[C@H](Cc1ccc(O)cc1)NC(=O)[C@H](CCCCN)NC(=O)[C@H](CO)NC(=O)[C@H](Cc1ccc(O)cc1)NC(=O)[C@H](CC(=O)O)NC(=O)[C@H](CO)NC(=O)[C@@H](NC(=O)[C@H](Cc1ccccc1)NC(=O)[C@@H](NC(=O)CNC(=O)[C@H](CCC(N)=O)NC(=O)[C@H](CO)NC(=O)[C@@H](N)Cc1c[nH]cn1)[C@@H](C)O)[C@@H](C)O)C(C)C)C(=O)N[C@@H](CC(C)C)C(=O)N[C@@H](CO)C(=O)N[C@H](C(=O)O)[C@@H](C)O [Example 2] | 0 | 56.0 | 44.0 | 0 | 46.2 | 53.8 | 0 | 43.9 | 56.1 | high monomeric content | 11.50 | do not appreciably bind and activate hGIPR | < 7 | 98 | 102 | 100 | maintain physical stability | 15 | 15 | 17 | Thioflavin T fluorescence, t = 0 hr [6]: 13 fluorescence units; Fibrillation [6]: did not demonstrate fibrillation; Pharmacokinetic parameters compared with human recombinant glucagon [7]: very similar; cAMP EC50 hGLP-1R [8]: weaker agonist activity at hGLP-1R than human glucagon; Emax hGLP-1R [8]: full efficacious; cAMP stimulation at hGLP-2R [9]: do not stimulate cAMP; cAMP EC50 hGCGR (hGCGR): equal or greater than human glucagon; Emax hGCGR (hGCGR): full efficacious
2 | CC(C)C[C@H](NC(=O)[C@H](Cc1ccncc1)NC(=O)[C@H](CCCCN)NC(=O)[C@@H](NC(=O)[C@H](Cc1ccccc1)NC(=O)[C@H](CCC(N)=O)NC(=O)[C@H](CCC(N)=O)NC(=O)[C@H](C)NC(=O)[C@H](CCCNC(=N)N)NC(=O)[C@H](CCCNC(=N)N)NC(=O)C(C)(C)NC(=O)[C@H](CC(=O)O)NC(=O)[C@H](CC(C)C)NC(=O)[C@H](Cc1ccc(O)cc1)NC(=O)[C@H](CCCCN)NC(=O)[C@H](CO)NC(=O)[C@H](Cc1ccc(O)cc1)NC(=O)[C@H](CC(=O)O)NC(=O)[C@H](CO)NC(=O)[C@@H](NC(=O)[C@H](Cc1ccccc1)NC(=O)[C@@H](NC(=O)CNC(=O)[C@H](CCC(N)=O)NC(=O)[C@H](CO)NC(=O)[C@@H](N)Cc1c[nH]cn1)[C@@H](C)O)[C@@H](C)O)C(C)C)C(=O)N[C@@H](CC(C)C)C(=O)N[C@@H](CO)C(=O)N[C@H](C(=O)O)[C@@H](C)O [Example 1] (H-HSQGTFTSDYSKYLD[Aib]RRAQQFVK[4Pal]LLST-OH; N-terminus assumed) | 0.7 | 95.1 | 4.2 | 1.1 | 91.9 | 7.0 | 0.8 | 92.6 | 6.6 | highly monomeric; also recorded: high monomeric content | 11.24 | do not appreciably bind and activate hGIPR | < 7 | 99 | 99 | 99 | maintain physical stability | 14 | 14 | 11 | Thioflavin T fluorescence, t = 0 hr [6]: 11 fluorescence units; Fibrillation [6]: did not demonstrate fibrillation; Pharmacokinetic parameters compared with human recombinant glucagon [7]: very similar; cAMP EC50 hGLP-1R [8]: weaker agonist activity at hGLP-1R than human glucagon; Emax hGLP-1R [8]: full efficacious; cAMP stimulation at hGLP-2R [9]: do not stimulate cAMP; cAMP EC50 hGCGR (hGCGR): equal or greater than human glucagon; Emax hGCGR (hGCGR): full efficacious
